Assay results published in PubChem BioAssay AID504834 (National Center for Advancing Translational Sciences (NCATS), 2011).
Out of some 320,000 compounds screened, about 22,000 (6.9%) were called active. Inconclusive means that the source gave no clear call. Such entries were picked first, then a sample of the others. Calls come from the whole dose curve; as a rule, active = well fitted inhibition curve with a large enough effect; inconclusive = small, poorly fitted or top-dose-only effect, or another doubt; inactive = no such curve, though single readings can be large or run the other way. Potencies of inconclusive entries are doubtful fits and often do not repeat.

Assay: Primary qHTS for delayed death inhibitors of the malarial parasite plastid, 96 hour incubation
Details: P. falciparum luciferase reporter growth; series mostly up to 28.7 µM
Procedure, shortened: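 P. falciparum expressing integrated firefly luciferase grown in erythrocytes (2% hematocrit, 0.05% parasitemia final) with compounds for 96 hours at 37 C, 5% CO2. Growth inhibition read as loss of luminescence after adding luciferase detection reagent.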
Potency is the fitted concentration of half-maximal effect.

Compound	Potency
CCCC(c1nnnn1CCc1ccccc1)N1CCN(C2CCCC2)CC1 (stereo not given)	inconclusive: 1.04 µM [inhibitor, partial curve, poor fit]
COc1ccc(NC(=O)c2cc(S(=O)(=O)N3CCCC3)ccc2OC)cc1	inactive
CC(=O)N(C(C)=O)c1ncc2c([nH]c3ccccc32)c1C#N	inconclusive: 0.586 µM [inhibitor, partial curve, poor fit]
CCOc1ccc(C(=O)N/N=C/c2ccc(SC)cc2)cc1	inconclusive: 9.28 µM [inhibitor, partial curve]
COC(=O)c1cccc(NC(=O)c2cccnc2)c1	inactive
CCc1occc(=O)c1Oc1cc(NN2CCCCC2)c([N+](=O)[O-])cc1[N+](=O)[O-]	inconclusive: 10.4 µM [inhibitor, single point]
CC1CCCCN1C(=O)C1CCCCN1S(=O)(=O)c1cccc([N+](=O)[O-])c1 (stereo not given)	inactive
CCOC(=O)c1sc(-c2ccc(Cl)cc2)nc1O	inconclusive: 14.7 µM [inhibitor, partial curve, poor fit]
Clc1ccc2c(c1)-c1nnc(Br)n1-c1ccccc1S2	inconclusive: 18.5 µM [inhibitor, single point]
Clc1ncnc2c1oc1ccccc12	inconclusive: 1.85 µM [inhibitor, partial curve, poor fit]
Cc1cc(C(=O)CN2CCN(CC(=O)Nc3cccc(F)c3)CC2)c(C)n1C1CC1	inactive
O=C(NC(=O)c1ccccc1)Nc1cccc(S(=O)(=O)N2CCCCC2)c1	inconclusive: 18.5 µM [inhibitor, single point]
COc1ccccc1CC(=O)OC(C)C(=O)Nc1ccc(S(=O)(=O)N2CCCCC2)cc1 (stereo not given)	inconclusive: 18.5 µM [inhibitor, single point]
COc1ccccc1-n1nc(C(=O)O)c2ccccc2c1=O	inconclusive: 7.38 µM [inhibitor, partial curve, poor fit]
COc1ccccc1N1CCN(C2CCCN(Cc3cc(F)cc(F)c3)C2)CC1 (stereo not given)	inconclusive: 18.5 µM [inhibitor, single point]
COc1ccc(S(=O)(=O)N2CCN(c3nc(C)cc(C)n3)CC2)cc1	inactive
CCN(CC)P(=O)(NC(=O)c1cccn1C)N(CC)CC	inconclusive: 4.15 µM [inhibitor, partial curve, poor fit]
COc1ccc(C2C(C(=O)Nc3cccc(OC)c3)c3ccccc3C(=O)N2C)cc1 (stereo not given)	inactive
COc1ccc(-c2nc3nc(C)cc(=O)n3[nH]2)cc1	inactive
O=C(CNc1cccc2ccccc12)N/N=C/c1ccc(OC(=O)/C=C/c2ccco2)cc1	inactive
COc1ccc(C(=O)Nc2nnc(Cc3ccc(OC)c(OC)c3)s2)cc1	inactive
Cc1noc(C)c1C(=O)Nc1cc(Cl)ccc1N1CCOCC1	inconclusive: 18.5 µM [inhibitor, single point]
O=C(Nc1ccccc1N1CCOCC1)c1cc(Cl)c2c(c1)OCO2	inconclusive: 18.5 µM [inhibitor, single point]
O=C(NCc1nnc(SCC(=O)N2CCC(Cc3ccccc3)CC2)o1)c1ccccc1F	active: 13.1 µM

Ordered by heavy-atom count (low to high): 15 of the compounds above.
Compound	Potency
Clc1ncnc2c1oc1ccccc12	inconclusive: 1.85 µM [inhibitor, partial curve, poor fit]
CCOC(=O)c1sc(-c2ccc(Cl)cc2)nc1O	inconclusive: 14.7 µM [inhibitor, partial curve, poor fit]
COC(=O)c1cccc(NC(=O)c2cccnc2)c1	inactive
Clc1ccc2c(c1)-c1nnc(Br)n1-c1ccccc1S2	inconclusive: 18.5 µM [inhibitor, single point]
CCN(CC)P(=O)(NC(=O)c1cccn1C)N(CC)CC	inconclusive: 4.15 µM [inhibitor, partial curve, poor fit]
CCOc1ccc(C(=O)N/N=C/c2ccc(SC)cc2)cc1	inconclusive: 9.28 µM [inhibitor, partial curve]
Cc1noc(C)c1C(=O)Nc1cc(Cl)ccc1N1CCOCC1	inconclusive: 18.5 µM [inhibitor, single point]
O=C(Nc1ccccc1N1CCOCC1)c1cc(Cl)c2c(c1)OCO2	inconclusive: 18.5 µM [inhibitor, single point]
O=C(NC(=O)c1ccccc1)Nc1cccc(S(=O)(=O)N2CCCCC2)c1	inconclusive: 18.5 µM [inhibitor, single point]
CCCC(c1nnnn1CCc1ccccc1)N1CCN(C2CCCC2)CC1 (stereo not given)	inconclusive: 1.04 µM [inhibitor, partial curve, poor fit]
CCc1occc(=O)c1Oc1cc(NN2CCCCC2)c([N+](=O)[O-])cc1[N+](=O)[O-]	inconclusive: 10.4 µM [inhibitor, single point]
Cc1cc(C(=O)CN2CCN(CC(=O)Nc3cccc(F)c3)CC2)c(C)n1C1CC1	inactive
COc1ccc(C2C(C(=O)Nc3cccc(OC)c3)c3ccccc3C(=O)N2C)cc1 (stereo not given)	inactive
COc1ccccc1CC(=O)OC(C)C(=O)Nc1ccc(S(=O)(=O)N2CCCCC2)cc1 (stereo not given)	inconclusive: 18.5 µM [inhibitor, single point]
O=C(CNc1cccc2ccccc12)N/N=C/c1ccc(OC(=O)/C=C/c2ccco2)cc1	inactive

Further results:

Compound	Potency
Nc1c(S(=O)(=O)c2ccccc2)c2nc3ccccc3nc2n1/N=C/c1ccco1	inconclusive: 6.57 µM [inhibitor, partial curve]
COc1cccc(C(=O)Nc2nnc(S(=O)(=O)N(C)Cc3ccccc3)s2)c1	inconclusive: 18.5 µM [inhibitor, single point]
CNC(=O)/C(C#N)=c1\s/c(=C/C(=O)OC)c(=O)n1-c1ccccc1	inactive
CCN(CC)c1ccc(/C=N/NC(=O)c2cccc(S(=O)(=O)N3CCOCC3)c2)c(O)c1	inconclusive: 9.28 µM [inhibitor, partial curve]
CCCN1C(=O)/C(=C/c2ccc(C)o2)SC1=Nc1ccc(OC)cc1	inconclusive: 9.28 µM [inhibitor, partial curve]
O=C(CCl)N1CCN(S(=O)(=O)Cc2ccccc2)CC1	active: 13.1 µM
Nc1nc(Nc2ccccc2)nc(NCc2ccco2)c1[N+](=O)[O-]	inconclusive: 18.5 µM [inhibitor, single point]
Cc1cc(OCCn2ccnc2)ccc1C(C)C	inconclusive: 18.5 µM [inhibitor, single point]
CCOc1ccc(-c2cc(C)[n+](CCN(CC)CC)c(-c3ccc(OCC)cc3)c2)cc1	active: 0.37 µM
COc1cccc(CC(=O)N(CCC2=CCCCC2)c2c(N)n(Cc3ccccc3)c(=O)[nH]c2=O)c1	inactive
CCn1c(O)c(C=NC2CCCC(C)C2C)sc1=S (stereo not given)	inconclusive: 3.7 µM [inhibitor, single point]
O=C(c1ccco1)N(Cc1ccccc1)c1cccc([N+](=O)[O-])c1	active: 6.57 µM
O=C(NCCN1CCOCC1)NC1(C(F)(F)F)Oc2ccc(Cl)cc2O1 (stereo not given)	inconclusive: 18.5 µM [inhibitor, single point]
Cc1ccc2oc(=O)c3cnn(CC(=O)N4CCCCC4C)c3c2c1 (stereo not given)	inconclusive: 7.38 µM [inhibitor, partial curve, poor fit]
O=C(CN1CCN(S(=O)(=O)c2cccc(F)c2)CC1)NCC1(N2CCOCC2)CCCCC1	inconclusive: 8.28 µM [inhibitor, partial curve, poor fit]
N#C/C(=C\c1cccnc1)C(=O)Nc1ccccc1[N+](=O)[O-]	inconclusive: 18.5 µM [inhibitor, single point]
CCc1cccc(C)c1NC(=S)N(CCN(C)C)C(C)c1cccnc1 (stereo not given)	inconclusive: 18.5 µM [inhibitor, single point]
CCn1c(CNS(=O)(=O)c2ccc(Br)cc2)n[nH]c1=S	inactive
COc1ccc(OCCOC(=O)c2ccc(F)c(S(=O)(=O)N3CCOCC3)c2)cc1	inconclusive: 18.5 µM [inhibitor, single point]
COc1ccc(CC(=O)Nc2cccc(S(=O)(=O)N3CCCCC3)c2)cc1	inconclusive: 0.415 µM [inhibitor, full curve, poor fit]
O=C(c1cc2nc(-c3cccs3)cc(C(F)(F)F)n2n1)N1CCCc2ccccc21	inconclusive: 18.5 µM [inhibitor, single point]
C[n+]1ccn(CC(=O)c2ccc(Br)cc2)c1	active: 9.28 µM
C/C=C/c1ccccc1OCc1ccc(C(=O)O)o1	inconclusive: 0.0029 µM [inhibitor, full curve, poor fit]
Cn1c(-c2cc(Cl)ccc2O)nc2c1c(=O)[nH]c(=O)n2Cc1ccccc1	active: 10.4 µM

Compound	Potency
CN1C(=O)/C(=C/c2ccccc2OCc2cccc(F)c2)N(C)C1=S	inconclusive: 9.28 µM [inhibitor, partial curve, poor fit]
N#Cc1c(-c2ccccc2)c(C#N)c2nc3ccccc3n2c1N	inactive
CCN(C(=O)CCS(=O)(=O)c1cccc2nonc12)c1ccc(F)cc1	inconclusive: 1.17 µM [inhibitor, partial curve, poor fit]
C/C(=N\NC(=O)c1ccccc1)c1cc2cc([N+](=O)[O-])ccc2oc1=O	inconclusive: 2.94 µM [inhibitor, single point]
COC(=O)[C@@]12CCCCN1[C@H](c1ccc(-c3cc(C(C)=O)cs3)c(OC)c1)[C@H]1C(=O)N(C)C(=O)[C@H]12	inconclusive: 2.08 µM [inhibitor, full curve]
Cc1ccnn1-c1ccc(C(=O)OCC(=O)Nc2ccc(F)cc2)cc1	inactive
Cc1ccccc1C(=O)Nc1nnc(CC(=O)N/N=C/c2ccncc2)s1	inactive
C/C(=C\C(=O)c1cccnc1)Nc1ccc(C)c(C)c1	inconclusive: 10.4 µM [inhibitor, partial curve, poor fit]
Cc1ccc(OS(=O)(=O)c2c(C)nn(C)c2Cl)c(C)c1	inactive
CCOC(=O)C1CCN(c2c(NCCCN(CC)c3ccccc3)c(=O)c2=O)CC1	inconclusive: 10.4 µM [inhibitor, partial curve, poor fit]
O=C(Cn1ccc2cc(S(=O)(=O)N3CCCC3)ccc21)NCc1ccccc1	inconclusive: 13.1 µM [inhibitor, partial curve, poor fit]
COc1cc(/C=C/C(=O)OCC(=O)N2CCCc3ccccc32)ccc1OC(F)F	inactive
COc1ccc(CNC(=O)CCc2ccc(S(=O)(=O)N3CCCCCC3)cc2)cc1	inconclusive: 2.08 µM [inhibitor, single point]
O=c1cc(-c2ccc(Br)cc2)[nH][nH]1	inactive
Cc1ccc(NC2CCCN(C(=O)c3cnsn3)C2)cc1C (stereo not given)	inactive
COc1ccc(OC)c(Cc2nnc(CCC(=O)NC3CCCCC3)o2)c1	active: 13.1 µM
Cc1ccc(C(=O)NC2CC(C)(C)NC(C)(C)C2)cc1	inconclusive: 6.57 µM [inhibitor, partial curve]
CCOC(=O)c1c(C)c(C(=O)NCc2ccccc2OC)c(C)n1C	inconclusive: 1.47 µM [inhibitor, partial curve, poor fit]
Cc1ccc(C(=O)C2CN(C)CC2C(=O)c2ccc(C)cc2)cc1 (stereo not given)	inactive
CC(N=Cc1c(O)[nH]c(=O)[nH]c1=O)c1ccccc1 (stereo not given)	inconclusive: 0.0415 µM [inhibitor, full curve, poor fit]
Cc1nnc(SCC(=O)N2CC(=O)Nc3ccccc32)n1-c1ccccc1	inactive
O=C(NCC1CCCO1)C(c1cccs1)N(C(=O)Cn1nnc(-c2cccs2)n1)C1CCCC1 (stereo not given)	inconclusive: 13.1 µM [inhibitor, partial curve, poor fit]

Quoted at random: 2 entries already listed
Compound	Potency
Cc1ccc(NC2CCCN(C(=O)c3cnsn3)C2)cc1C (stereo not given)	inactive
Cc1ccc(OS(=O)(=O)c2c(C)nn(C)c2Cl)c(C)c1	inactive
